Article PMC4239116, “Crystal Structure of Cytomegalovirus IE1 Protein Reveals Targeting of TRIM Family Member PML via Coiled-Coil Interactions” (PLoS Pathogens, 2014)
No constants are given. Whether binding was seen depends on the method and setting. For some assays here: Binding seen in cells or lysates may run through a third protein. Some entries that bind do so weakly or less than the wild type.

The chains behind the UniProt entries cited, without tags or fusion partners. Where a name states a change or a piece, a line headed by the entry shows the natural chain unless it says otherwise.
UniProt Q0PF16: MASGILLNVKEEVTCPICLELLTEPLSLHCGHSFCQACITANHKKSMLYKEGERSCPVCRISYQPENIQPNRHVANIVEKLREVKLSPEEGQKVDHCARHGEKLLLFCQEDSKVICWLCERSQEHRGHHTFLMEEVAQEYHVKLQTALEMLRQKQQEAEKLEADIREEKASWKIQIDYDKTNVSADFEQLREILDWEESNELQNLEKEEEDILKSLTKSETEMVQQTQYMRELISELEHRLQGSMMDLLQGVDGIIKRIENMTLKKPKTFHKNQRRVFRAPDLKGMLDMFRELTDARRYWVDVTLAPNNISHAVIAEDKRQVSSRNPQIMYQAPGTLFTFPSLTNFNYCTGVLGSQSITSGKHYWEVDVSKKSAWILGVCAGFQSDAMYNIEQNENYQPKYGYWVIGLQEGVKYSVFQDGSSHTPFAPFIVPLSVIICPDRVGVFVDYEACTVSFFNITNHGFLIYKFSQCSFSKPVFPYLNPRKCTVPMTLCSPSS
UniProt P13202: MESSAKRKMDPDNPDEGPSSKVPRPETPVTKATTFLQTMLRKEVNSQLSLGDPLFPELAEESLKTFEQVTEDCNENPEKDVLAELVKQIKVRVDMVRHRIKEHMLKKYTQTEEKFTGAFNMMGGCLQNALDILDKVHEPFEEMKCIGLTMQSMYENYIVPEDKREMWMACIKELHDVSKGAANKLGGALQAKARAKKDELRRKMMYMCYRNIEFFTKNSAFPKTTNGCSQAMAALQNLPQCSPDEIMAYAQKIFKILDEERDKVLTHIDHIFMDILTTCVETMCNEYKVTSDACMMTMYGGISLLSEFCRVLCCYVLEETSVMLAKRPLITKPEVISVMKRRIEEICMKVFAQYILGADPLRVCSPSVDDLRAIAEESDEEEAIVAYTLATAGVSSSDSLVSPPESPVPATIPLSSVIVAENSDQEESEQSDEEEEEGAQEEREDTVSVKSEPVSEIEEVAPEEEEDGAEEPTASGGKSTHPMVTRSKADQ

Legend:
[1] = target: FLAG-tagged PML (isoform VI) (UniProt P29590); experiment: co-IP
[2] = target: FLAG-tagged rhesus macaque TRIM5α (rhesus macaque) (UniProt Q0PF16); experiment: co-IP
[3] = target: PML, yeast two-hybrid fusion (UniProt P29590); experiment: two-hybrid; S. cerevisiae Y153, pGBT9 and pGAD424 fusions; XGal filter lift assay
[4] = target: PML, yeast two-hybrid fusion (UniProt P29590); experiment: two-hybrid; S. cerevisiae Y153, pGBT9 and pGAD424 fusions; β-galactosidase activity quantified with ONPG, background of the empty vectors subtracted

| Substance | binding [1] | binding [2] | binding [3] | binding [4] |
| --- | --- | --- | --- | --- |
| Myc-tagged hIE1(1-382) (from UniProt P13202 1-382) (domain or fragment) | binds | binds |  |  |
| full-length hIE1, yeast two-hybrid fusion (from UniProt P13202 1-491) |  |  | binds |  |
| hIE1_(CORE)(14-382), yeast two-hybrid fusion (from UniProt P13202 14-382) (domain or fragment) |  |  | binds | binds |
